The source of these data is the supplement of paper PMC4635364.

Structures are written as SMILES. Structures can show the parent of a compound that is named as a salt. The list shows a part of the results. Single values are uncertain here, since repeats match poorly.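 Cells: ReNCell VM human fetal ventral-midbrain neural progenitors, differentiated mitogen-free. Blinded raters compared doublecortin-stained (early neurons) or tyrosine hydroxylase-stained (dopaminergic neurons) images with untreated wells, where 0 means no change. After repeats and both raters were averaged, compounds scoring 2 or above became hits for retesting.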

Test [1] concerns ReNCell VM. Nature of the test: neuronal differentiation score (DCX+ cell fraction vs untreated, manual image score) (score (-3 to 3)); higher = more neuronal differentiation. As to conditions: 2 uM, 2 weeks.
Test [2] has as its system ReNCell VM. The test can be described thus: dopaminergic neuron differentiation score (TH+ cell fraction vs untreated, manual image score) (score (0 to 3)); higher = more TH+ dopaminergic neuron differentiation. The following applies: 2 uM, 4 weeks, BDNF 10 ng/ml + GDNF 10 ng/ml.

In the case of `CC(C)c1ccc2oc3nc(N)c(C(=O)O)cc3c(=O)c2c1`, the neuronal differentiation score in the test on ReNCell VM [1] (library: Spectrum) was inactive: 0. Besides, the “dopaminergic neuron differentiation score” value with ReNCell VM [2] (library: Spectrum) was inactive: 0.
Turning to `CCC(NC(C)C)C(O)c1ccc(O)c(O)c1` (configuration not stated), in the test with ReNCell VM [1] (library: Spectrum), the neuronal differentiation score was inactive: 0. In addition, the “dopaminergic neuron differentiation score” value in the test with ReNCell VM [2] (library: Spectrum) was inactive: 0.
Consider `O=C(O)c1cccnc1` [Nicotinic acid], for which the neuronal differentiation score in the test on ReNCell VM [1] (library: Phytochemical) was inactive: 0. The “dopaminergic neuron differentiation score” value with ReNCell VM [2] (library: Phytochemical) is inactive: 0.
Turning to `Cc1ccc(C(=O)Cn2c3c(sc2=N)CCCC3)cc1` [Pifithrin- à hydrobromide], in the test on ReNCell VM [1] (library: Tocriscreen), the neuronal differentiation score is inactive: 1. Besides, in the test on ReNCell VM [2] (library: Tocriscreen), the “dopaminergic neuron differentiation score” value was inactive: 0.
On to `CC(=O)OCC(=O)[C@@]1(O)[C@H](C)C[C@H]2[C@@H]3CCC4=CC(=O)C=C[C@]4(C)[C@@]3(F)[C@@H](O)C[C@@]21C` [Dexamethasone acetate], for which the neuronal differentiation score in the test on ReNCell VM [1] (library: Prestwick) was inactive: 0. In addition, the “dopaminergic neuron differentiation score” value in the test on ReNCell VM [2] (library: Prestwick) was inactive: 0.
As for `CCCn1c(=O)c2[nH]c(-c3ccc(OCC(=O)NCCN)cc3)nc2n(CCC)c1=O` [Xanthine amine congener], in the test on ReNCell VM [1] (library: LOPAC), the neuronal differentiation score is inactive: 0. Further, the “dopaminergic neuron differentiation score” value in the test with ReNCell VM [2] (library: LOPAC) is inactive: 0.
Consider `Cc1nc(N=Nc2cc([N+](=O)[O-])ccc2Cl)c(COP(=O)(O)O)c(C=O)c1O` [MRS 2211 sodium salt hydrate], for which the neuronal differentiation score in the test with ReNCell VM [1] (library: LOPAC) is inactive: 0. Further, the “dopaminergic neuron differentiation score” value in the test on ReNCell VM [2] (library: LOPAC) was inactive: 0.
For the compound `N#C/C(=C\c1ccc(O)c(O)c1)C(=O)NCCc1ccccc1` [Tyrphostin AG 698], the neuronal differentiation score with ReNCell VM [1] (library: LOPAC) is inactive: 0. Moreover, the “dopaminergic neuron differentiation score” value in the test on ReNCell VM [2] (library: LOPAC) was inactive: 1.
As to `COc1ccc(CCNC[C@@H](O)c2ccc(O)cc2)cc1OC` [R(-)-Denopamine], the neuronal differentiation score with ReNCell VM [1] (library: LOPAC) was inactive: 0. Further, in the test on ReNCell VM [2] (library: LOPAC), the “dopaminergic neuron differentiation score” value was inactive: 0.
As for `CC1Oc2ccccc2C=C1/C=C/C(=O)O` (configuration not stated) [3-(2-methyl-2h-chromen-3-yl)-acrylic acid], the neuronal differentiation score in the test on ReNCell VM [1] (library: Natural) is inactive: -1. Besides, the “dopaminergic neuron differentiation score” value in the test on ReNCell VM [2] (library: Natural) was inactive: 0.
Regarding `COc1ccc(-c2cc(=O)c3c(O)cc(O)cc3o2)cc1` [Acacetin], in the test with ReNCell VM [1] (library: Phytochemical), the neuronal differentiation score is inactive: 0. The “dopaminergic neuron differentiation score” value with ReNCell VM [2] (library: Phytochemical) was inactive: 0.
For the compound `CSc1nc(NC2CCCC2)c([N+](=O)[O-])c(NC2CCCC2)n1`, in the test with ReNCell VM [1] (library: Tocriscreen), the neuronal differentiation score is inactive: 0. Further, the “dopaminergic neuron differentiation score” value with ReNCell VM [2] (library: Tocriscreen) was inactive: 0.
For the compound `COc1ccc(-c2nc(-c3ccc(-c4cccc(Cl)c4)o3)[nH]c2-c2ccc(OC)cc2)cc1` [Neurodazine], the neuronal differentiation score with ReNCell VM [1] (library: Tocriscreen) was inactive: 0. Besides, in the test on ReNCell VM [2] (library: Tocriscreen), the “dopaminergic neuron differentiation score” value was inactive: 0.
Consider `O=C(O)[C@H]1CC[C@@](C(=O)O)(c2ccccc2)c2ccccc21` [1,2,3,4-tetrahydro-1-phenyl-1,4-naphthalenedicarboxylic acid], for which the neuronal differentiation score in the test on ReNCell VM [1] (library: Natural) was inactive: 0. Further, the “dopaminergic neuron differentiation score” value with ReNCell VM [2] (library: Natural) is inactive: 0.
Consider `CC(=O)OCC(=O)[C@@]1(O)CC[C@H]2[C@@H]3CCC4=CC(=O)C=C[C@]4(C)[C@@]3(Cl)[C@@H](Cl)C[C@@]21C`, for which the neuronal differentiation score in the test on ReNCell VM [1] (library: Spectrum) is inactive: 0. In the test on ReNCell VM [2] (library: Spectrum), the “dopaminergic neuron differentiation score” value was inactive: 0.
Turning to `Nc1ccc(O)c(C(=O)O)c1` [Mesalamine], the neuronal differentiation score in the test on ReNCell VM [1] (library: Prestwick) was inactive: 0. The “dopaminergic neuron differentiation score” value with ReNCell VM [2] (library: Prestwick) was inactive: 0.
On to `Cc1oncc1C(=O)Nc1ccc(C(F)(F)F)cc1`, for which, in the test with ReNCell VM [1] (library: Spectrum), the neuronal differentiation score is inactive: 0. Moreover, the “dopaminergic neuron differentiation score” value in the test on ReNCell VM [2] (library: Spectrum) is inactive: 0.
As for `O=C1CN(/N=C/c2ccc([N+](=O)[O-])o2)C(=O)N1`, in the test with ReNCell VM [1] (library: Spectrum), the neuronal differentiation score is inactive: 0. Further, the “dopaminergic neuron differentiation score” value in the test with ReNCell VM [2] (library: Spectrum) was inactive: 0.
For `CC(=O)C1=C(O)C=C2Oc3c(C(C)=O)c(O)c(C)c(O)c3[C@]2(C)C1=O` [usnic acid], the neuronal differentiation score in the test on ReNCell VM [1] (library: Natural) was inactive: 0. Also, the “dopaminergic neuron differentiation score” value with ReNCell VM [2] (library: Natural) was inactive: 0.
Take `Nc1nc2c(nc(Br)n2C2OC3COP(=O)(O)O[C@@H]3C2O)c(=O)[nH]1` (some centres not stated) [8-Bromo-cGMP sodium]: in the test on ReNCell VM [1] (library: LOPAC), the neuronal differentiation score was inactive: 0. Besides, the “dopaminergic neuron differentiation score” value in the test on ReNCell VM [2] (library: LOPAC) was inactive: 0.
On to `CN1CCN(c2c(F)cc3c(=O)c(C(=O)O)cn4c3c2SCC4)CC1`, for which the neuronal differentiation score with ReNCell VM [1] (library: Spectrum) is inactive: 0. Besides, the “dopaminergic neuron differentiation score” value with ReNCell VM [2] (library: Spectrum) is inactive: 0.
`CC(C)c1ccccc1S(=O)(=O)c1cc(N)c2ncccc2c1[N+](=O)[O-]`: the neuronal differentiation score in the test with ReNCell VM [1] (library: Tocriscreen) was inactive: 0. For the same compound, the “dopaminergic neuron differentiation score” value in the test on ReNCell VM [2] (library: Tocriscreen) is inactive: 0.
As to `CN(C)CCCSc1ccccc1NC(=O)/C=C/c1ccccc1` [Cinanserin hydrochloride], the neuronal differentiation score in the test with ReNCell VM [1] (library: Tocriscreen) is inactive: 0. Moreover, in the test with ReNCell VM [2] (library: Tocriscreen), the “dopaminergic neuron differentiation score” value is inactive: 1.
With `COCCOC(=O)C1=C(C)NC(C)=C(C(=O)OC(C)C)C1c1cccc([N+](=O)[O-])c1` (configuration not stated), in the test with ReNCell VM [1] (library: Spectrum), the neuronal differentiation score was inactive: 0. Moreover, in the test on ReNCell VM [2] (library: Spectrum), the “dopaminergic neuron differentiation score” value is inactive: 0.
On to `Nc1ccc(C(=O)NCC(=O)O)cc1` [Aminohippuric acid], for which, in the test on ReNCell VM [1] (library: Prestwick), the neuronal differentiation score was inactive: 0. For the same compound, the “dopaminergic neuron differentiation score” value in the test on ReNCell VM [2] (library: Prestwick) was inactive: 0.
On to `O=c1c(O)c(-c2ccccc2)oc2ccccc12`, for which the neuronal differentiation score in the test with ReNCell VM [1] (library: Spectrum) is inactive: 0. Besides, in the test on ReNCell VM [2] (library: Spectrum), the “dopaminergic neuron differentiation score” value was inactive: 0.
In the case of `CCCSc1ccc2[nH]c(NC(=O)OC)nc2c1`, in the test with ReNCell VM [1] (library: Spectrum), the neuronal differentiation score was inactive: 0. Also, the “dopaminergic neuron differentiation score” value in the test with ReNCell VM [2] (library: Spectrum) was inactive: 0.
Turning to `CCn1cc(C(=O)O)c(=O)c2cnc(N3CCCC3)nc21` [Piromidic acid], the neuronal differentiation score with ReNCell VM [1] (library: Prestwick) was inactive: 0. The “dopaminergic neuron differentiation score” value in the test with ReNCell VM [2] (library: Prestwick) was inactive: 0.
Take `COc1ccc2cc1Oc1ccc(cc1)C[C@H]1c3cc(c(OC)cc3CCN1C)Oc1c(OC)c(OC)cc3c1[C@H](C2)N(C)CC3`: in the test with ReNCell VM [1] (library: Spectrum), the neuronal differentiation score is inactive: 0. Moreover, the “dopaminergic neuron differentiation score” value with ReNCell VM [2] (library: Spectrum) was inactive: 0.
Consider `CC1(C)C[C@@H]1C(=O)N/C(=C\CCCCSC[C@H](N)C(=O)O)C(=O)O` [Cilastatin sodium], for which, in the test on ReNCell VM [1] (library: Tocriscreen), the neuronal differentiation score was inactive: 0. For the same compound, in the test on ReNCell VM [2] (library: Tocriscreen), the “dopaminergic neuron differentiation score” value is inactive: 0.
Take `O=c1c(O)c(-c2ccc(O)cc2)oc2cc(O)cc(O)c12`: the neuronal differentiation score in the test on ReNCell VM [1] (library: Spectrum) is inactive: -1. Also, the “dopaminergic neuron differentiation score” value in the test on ReNCell VM [2] (library: Spectrum) is inactive: 0.
Turning to `NS(=O)(=O)c1nn2cc(-c3ccccc3)nc2s1`, the neuronal differentiation score with ReNCell VM [1] (library: Tocriscreen) is inactive: 0. Moreover, the “dopaminergic neuron differentiation score” value in the test with ReNCell VM [2] (library: Tocriscreen) is inactive: 0.
Consider `[Cl-].[Li+]` [Lithium Chloride], for which, in the test with ReNCell VM [1] (library: LOPAC), the neuronal differentiation score is inactive: 0. Moreover, the “dopaminergic neuron differentiation score” value in the test with ReNCell VM [2] (library: LOPAC) was inactive: 0.
Regarding `O=C(CCBr)N1CCN(C(=O)CCBr)CC1`, the neuronal differentiation score in the test on ReNCell VM [1] (library: Spectrum) is inactive: 0. The “dopaminergic neuron differentiation score” value in the test on ReNCell VM [2] (library: Spectrum) was inactive: 0.
As to `NC(=O)c1cnccn1` [Pyrazinamide], the neuronal differentiation score in the test with ReNCell VM [1] (library: Prestwick) is inactive: 0. Besides, in the test with ReNCell VM [2] (library: Prestwick), the “dopaminergic neuron differentiation score” value is inactive: 0.
Turning to `O=C(/C=C/C=C/c1ccc2c(c1)OCO2)N1CCCCC1` [Piperine], the neuronal differentiation score with ReNCell VM [1] (library: Phytochemical) was inactive: 0. In addition, the “dopaminergic neuron differentiation score” value in the test on ReNCell VM [2] (library: Phytochemical) is inactive: 0.
